This passage reports binding results from paper PMC10321654.

Amino acid sequences for entries named in this document (tags omitted).
UniProt P97371: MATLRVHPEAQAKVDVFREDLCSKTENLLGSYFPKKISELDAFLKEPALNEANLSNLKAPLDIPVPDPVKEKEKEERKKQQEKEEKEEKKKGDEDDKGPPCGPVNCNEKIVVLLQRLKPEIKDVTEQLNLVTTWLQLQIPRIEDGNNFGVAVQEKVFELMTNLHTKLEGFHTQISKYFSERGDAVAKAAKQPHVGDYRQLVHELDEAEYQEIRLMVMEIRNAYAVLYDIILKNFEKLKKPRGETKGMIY

One assay has as its target GFP-PA28α (UniProt P97371). In words: co-IP.
Assay [1] addresses 3xFLAG-LegC4 (L. pneumophila) (UniProt Q5ZU55). Kind of assay: co-IP.
In a further assay the target is GST-PA28α (UniProt P97371). Kind of assay: pull-down; only the target purified.

Results are given in words; binding and its absence hold for the method and conditions named. Binding seen in cells or lysates may run through a third protein. Some entries that bind do so weakly or less than the wild type.

For “3xFLAG-LegC4 (from UniProt Q5ZU55 1-760)”, the binding result with GFP-PA28α is given as “binds”.

Turning to PA28α-Myc (from UniProt P97371 1-249), in assay [1], the binding result is given as “binds”.

In the case of “[change]-LegC4 (from UniProt Q5ZU55 1-760)”, the binding entry with GST-PA28α was “binds”.
